Experimental data as given in PMC9314386.
These are yes or no findings as the source states them, for the method shown. Binding seen in cells or lysates may run through a third protein. Some entries that bind do so weakly or less than the wild type.

T1: myosin phosphatase target subunit 1 (MYPT1) (rat (endogenous in A7R5)) (UniProt Q10728)
T1 sequence: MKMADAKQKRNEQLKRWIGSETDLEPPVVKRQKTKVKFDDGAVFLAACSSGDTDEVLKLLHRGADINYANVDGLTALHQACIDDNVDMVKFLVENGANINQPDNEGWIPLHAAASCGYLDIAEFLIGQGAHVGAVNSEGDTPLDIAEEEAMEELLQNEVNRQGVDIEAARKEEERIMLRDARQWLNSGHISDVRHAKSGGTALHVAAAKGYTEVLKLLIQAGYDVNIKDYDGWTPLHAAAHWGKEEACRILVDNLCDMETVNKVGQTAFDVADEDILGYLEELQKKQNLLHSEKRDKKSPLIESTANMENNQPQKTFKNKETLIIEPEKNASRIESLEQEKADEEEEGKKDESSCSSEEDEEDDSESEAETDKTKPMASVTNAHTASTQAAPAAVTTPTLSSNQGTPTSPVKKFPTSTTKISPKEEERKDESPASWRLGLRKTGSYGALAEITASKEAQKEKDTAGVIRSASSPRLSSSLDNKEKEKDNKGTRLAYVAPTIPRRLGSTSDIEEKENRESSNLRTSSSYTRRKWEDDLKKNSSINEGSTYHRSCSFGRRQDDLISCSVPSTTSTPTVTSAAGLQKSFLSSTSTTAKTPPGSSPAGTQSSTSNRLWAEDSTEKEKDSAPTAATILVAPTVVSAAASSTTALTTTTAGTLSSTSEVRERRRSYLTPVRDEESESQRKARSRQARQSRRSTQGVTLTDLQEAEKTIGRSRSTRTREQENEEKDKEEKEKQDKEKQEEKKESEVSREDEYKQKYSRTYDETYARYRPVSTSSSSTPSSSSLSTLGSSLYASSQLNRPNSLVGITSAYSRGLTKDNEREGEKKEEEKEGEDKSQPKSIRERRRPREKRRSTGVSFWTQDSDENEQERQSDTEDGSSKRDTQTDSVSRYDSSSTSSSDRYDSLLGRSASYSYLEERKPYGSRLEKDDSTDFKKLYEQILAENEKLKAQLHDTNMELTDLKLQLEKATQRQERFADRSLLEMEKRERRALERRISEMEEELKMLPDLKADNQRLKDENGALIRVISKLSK

B1: SIAH1 E3 ligase (enzyme, UniProt Q920M9 1-282)
chain: MSRQTATALPTGTSKCPPSQRVPALTGTTASNNDLASLFECPVCFDYVLPPILQCQSGHLVCSNCRPKLTCCPTCRGPLGSIRNLAMEKVANSVLFPCKYASSGCEITLPHTEKAEHEELCEFRPYSCPCPGASCKWQGSLDAVMPHLMHQHKSITTLQGEDIVFLATDINLPGAVDWVMMQSCFGFHFMLVLEKQEKYDGHQQFFAIVQLIGTRKQAENFAYRLELNGHRRRLTWEATPRSIHEGIATAIMNSDCLVFDTSIAQLFAENGNLGINVTISMC
B2: SIAH2 E3 ligase (enzyme, UniProt Q8R4T2 1-325)
chain: MSRPSSTGPSANKPCSKQPPPPQTPHAPSPAAPPAAATISAAGPGSSAVPAAAAVISGPGAGGGAGPVSPQHHELTSLFECPVCFDYVLPPILQCQAGHLVCNQCRQKLSCCPTCRGALTPSIRNLAMEKVASAVLFPCKYATTGCSLTLHHTEKPEHEDICEYRPYSCPCPGASCKWQGSLEAVMSHLMHAHKSITTLQGEDIVFLATDINLPGAVDWVMMQSCFGHHFMLVLEKQEKYEGHQQFFAIVLLIGTRKQAENFAYRLELNGNRRRLTWEATPRSIHDGVAAAIMNSDCLVFDTAIAHLFADNGNLGINVTISTCCQ

Biological target: T1, myosin phosphatase target subunit 1 (MYPT1) (rat (endogenous in A7R5))
Assay: co-IP; immunoprecipitation with an anti-MYPT1 antibody from lysates of A7R5 cells treated with MG132 (20 uM) and lotusine (0.5 uM, 24 h); immunoblot of the immunoprecipitate for ubiquitin, SIAH1 and SIAH2

| Binder | binding |
| --- | --- |
| B1 | binds |
| B2 | binds |
